The results in this text go back to patent US20070123537A1, “Quinazoline derivatives for the treatment of herpesviral infections” (GPC Biotech AG, priority 2003, published 2007).

Each structure is given as a SMILES string. The structures given here were assigned with low confidence; some may be wrong.

The data set concerns HEK 293 cells. Briefly: Toxicity assay in HEK 293 cells. The class given is cell-based. The procedure: Toxicity Assay: Toxicity of the quinazoline derivatives was measured by incubating HEK 293 cells with 10 μM of each derivative. The corresponding amount of DMSO served as control.

Take `Brc1cccc(Nc2ncnc3ccccc23)c1`: the “Viability [%] at 10 μM” value came to 98%.
